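Enzyme assay of the cytosolic lysyl-tRNA synthetase in 384-well plates, read by luminescence. Target: Lysine-tRNA ligase, Plasmodium falciparum 3D7 (UniProt Q8IDJ8). Concentration: 30 µM. Higher reads as stronger inhibition, judged from the few compounds that gave an IC50. About 69,000 compounds were tested under these conditions; 0.071% (about 49) showed 50% or more at least once.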

Protein sequences, listed by entry. Tags and fused reporters are not part of them. Residues count along the entry.
UniProt Q8IDJ8, 1-583: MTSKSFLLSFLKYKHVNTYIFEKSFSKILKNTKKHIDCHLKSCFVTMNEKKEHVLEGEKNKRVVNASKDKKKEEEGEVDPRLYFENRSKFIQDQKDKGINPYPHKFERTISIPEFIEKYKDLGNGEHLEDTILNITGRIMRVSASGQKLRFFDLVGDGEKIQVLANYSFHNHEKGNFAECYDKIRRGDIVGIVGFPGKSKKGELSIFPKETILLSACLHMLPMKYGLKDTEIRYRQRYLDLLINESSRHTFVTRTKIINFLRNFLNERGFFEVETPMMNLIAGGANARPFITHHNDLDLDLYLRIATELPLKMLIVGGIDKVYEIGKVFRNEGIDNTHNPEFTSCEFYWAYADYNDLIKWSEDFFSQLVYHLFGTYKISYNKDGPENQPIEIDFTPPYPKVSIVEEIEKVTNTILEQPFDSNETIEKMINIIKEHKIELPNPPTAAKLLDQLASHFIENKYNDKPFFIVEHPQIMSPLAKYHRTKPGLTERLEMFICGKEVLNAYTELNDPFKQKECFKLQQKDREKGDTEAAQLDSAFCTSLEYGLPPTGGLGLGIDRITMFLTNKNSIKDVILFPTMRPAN

Values are the deposited “Percent Effect”, in %.
The record does not define 0% and 100%; most values in the screen are far below 50% and negative numbers occur (in some assays of this library far below -100).
The compounds are a random part of those screened.

| # | compound | percent effect |
|---|---|---|
| 1 | `Cc1ncc(CNC(=O)c2nn(C)c3c2CS(=O)(=O)CC3)s1` | 3.277% |
| 2 | `CNc1nc(C)c(C(=O)NCC(C)(C)N2CCCCC2)s1` | 0.3434% |
| 3 | `O=C(NCCNc1cnccn1)N1CCc2ccccc2C1` | 5.049% |
| 4 | `CN(Cc1ccc(O)cc1)C(=O)NC1CCCN(c2ncccn2)C1` (configuration not stated) | -0.2842% |
| 5 | `OC[C@H]1CN(Cc2c(Cl)cncc2Cl)C[C@H]1CN1CCOCC1` | 2.263% |
| 6 | `CSCC(C)NS(=O)(=O)c1ccc(C)c(N(C)C)c1` (configuration not stated) | 4.214% |
| 7 | `Cc1ccc(-c2nnc(CN3CCCC(O)(CO)CC3)o2)n1C` (configuration not stated) | 3.255% |
| 8 | `Cn1nc(C(=O)N2CCOCC2)cc1C(=O)Nc1ccc(Cl)cc1Cl` | 8.128% |
| 9 | `Cc1cnc(NC(C)Cc2cccnc2)nc1N(C)C` (configuration not stated) | 3.556% |
| 10 | `CNS(=O)(=O)Cc1ccc(CNC(=O)Nc2cccnc2)cc1` | 9.777% |
| 11 | `CCCn1nc(C)c(CN2CC3(CCOC3)CCC2=O)c1C` (configuration not stated) | 0.07168% |
| 12 | `NC(=O)c1ccc(C(=O)N2CCCC(n3ccnc3)C2)s1` (configuration not stated) | -0.1474% |
| 13 | `c1cc(CN2CCOCC3(CCN(C4CCOCC4)C3)C2)ccn1` (configuration not stated) | -3.65% |
| 14 | `Cc1ccc(CS(=O)(=O)CC(=O)NCc2ccccc2F)cc1` | 0.7069% |
| 15 | `CCC(CC)C(=O)N1CCN(Cc2nc3ccccc3c(=O)[nH]2)CC1` | -0.7901% |
| 16 | `CN(CCc1ccncc1)c1cnn(C)c(=O)c1Br` | 0.7211% |
| 17 | `COc1ccc(OC)c(C2CCN(CC(C)(C)N3CCOCC3)C2)c1` (configuration not stated) | 1.11% |
| 18 | `C=C(C)COCCNC(=O)C1CCCN1C(C)=O` (configuration not stated) | 5.02% |
| 19 | `Cc1nc(CN2CCCC(NCCCOc3ccc(F)cc3)C2)no1` (configuration not stated) | 0.01315% |
| 20 | `Cc1cccc(CNC[C@H]2Cn3cc(-c4ccccc4)nc3CO2)n1` | 0.07566% |
| 21 | `COC(=O)CCC(=O)N1CCCC2(CCCN2Cc2cccc(F)c2)C1` (configuration not stated) | 2.792% |
| 22 | `O=C(CNc1ccc(OCC2CCOCC2)cc1)NCc1ccco1` | -0.8986% |
| 23 | `O=C(Nc1nc2c(s1)CN(S(=O)(=O)C1CC1)CC2)c1ccc(Cl)s1` | 4.551% |
| 24 | `CCc1c(C)nc(C)nc1N1CCC(NCCSc2nnnn2C)CC1` | 4.74% |
| 25 | `Cc1nn(C)c2cn(CC(=O)NC3CCSCC3)nc12` | 2.763% |
| 26 | `CNC(=O)CN1CCC(CN(C)Cc2ccncc2Cl)CC1` | 6.354% |
| 27 | `O=C(c1cccc2c1OCCO2)N1CCCC(n2cccn2)C1` (configuration not stated) | 1.446% |
| 28 | `C=C(C)COc1cccc(CNCCc2c[nH]cn2)c1` | 5.155% |
| 29 | `CC(C)n1cc(CN2CCCN(C(=O)c3ccc[nH]3)CC2)cn1` | -0.9513% |
| 30 | `CCOc1cc(CNC(=O)c2cc(-c3ccccn3)no2)ccn1` | 3.672% |
| 31 | `CCOC(C)C(=O)N1CCN(S(C)(=O)=O)CC1` (configuration not stated) | 4.491% |
| 32 | `CC(C)n1ccnc1C1CCN(C(=O)c2cc[nH]n2)CC1` | 7.218% |
| 33 | `O=C1CCCN1Cc1ncn2c1CN(C(=O)NC1CCCC1)CCC2` | 3.063% |
| 34 | `CCc1nccn1CCC(=O)N1CC(=O)N(c2ccccc2C)CC1C` (configuration not stated) | 10.82% |
| 35 | `CC(=O)NCC1CCN(C(=O)c2c[nH]c3cc(Cl)ccc23)CC1` | 12.74% |
| 36 | `O=C1N(CC2CC2)C(c2c[nH]nc2-c2cccnc2)NC12CCCC2` (configuration not stated) | -1.279% |
| 37 | `Cc1ccc(Br)cc1NC(=O)NC1CCC2(C1)OCCO2` (configuration not stated) | -1.633% |
| 38 | `CC(=O)Nc1ccc(SCC(O)COCc2ccco2)cc1` (configuration not stated) | 5.234% |
| 39 | `Cn1cc(CNc2ncnc3c2CCN(Cc2ccsc2)CC3)cn1` | 2.069% |
| 40 | `C=C/C=c1\c(=C/C)oc2c(NCc3ccccc3)nc(C)nc12` | 6.818% |
| 41 | `CCn1c(CN2CCCC2)nnc1C1CCN(Cc2ccc(C)o2)CC1` | 6.388% |
| 42 | `Cc1ccc(N2CC[C@@H]3[C@@H]2CCN3C(=O)Cc2ccsc2)nn1` | 2.372% |
| 43 | `COc1ccnc(N2CCC3(CCCN(CC4CC4)C3=O)C2)n1` (configuration not stated) | 1.98% |
| 44 | `O=C(c1cnccn1)N1CCN(CC2CC2)c2ncccc2C1` | 3.645% |
| 45 | `CC(C)c1nnc2ccc(N3CCC(C(=O)Nc4nccs4)CC3)nn12` | 4.863% |
| 46 | `CN1CCN(c2ccc(NS(=O)(=O)c3ccc(Cl)s3)cc2C(=O)O)CC1` | 2.65% |
| 47 | `Cn1c(C2CC2)nc2cc(NC(=O)C3CCOC3)ccc21` (configuration not stated) | 4.271% |
| 48 | `COc1ccc(COCC(O)CNC(=O)c2cccc(OC)c2)cc1` (configuration not stated) | -0.06054% |
| 49 | `CCn1ncc(-c2cc(C(F)F)n3nc(CCC(=O)O)nc3n2)c1C` | 2.878% |
| 50 | `NC(=O)CN1CC2(CCC1=O)CCN(Cc1ccccc1F)CC2` | 6.362% |
| 51 | `Cc1cc(C)n(C2CCCN(C(=O)Cn3ccc(=O)n(C)c3=O)C2)n1` (configuration not stated) | 2.632% |
| 52 | `O=C1NCCN(CC2CC2)C12CCN(Cc1ccc3c(c1)OCO3)CC2` | -11.33% |
| 53 | `CSCC(C)(O)CNS(=O)(=O)Cc1ccc(F)cc1` (configuration not stated) | 1.863% |
| 54 | `CCc1nc(CCNc2ncccc2C#N)sc1C` | 3.326% |
| 55 | `CN(CCNC(=O)Nc1ccncc1)C1CCCCC1` | -3.901% |
| 56 | `Cn1ccc2c(-c3cc(N)nc(N4CCOCC4)n3)ccnc21` | 0.1345% |
| 57 | `CC(C)CNC(=O)c1cc(C2CC2)nc2onc(C3CCNCC3)c12` | -0.7703% |
| 58 | `COc1ccc(C(=O)C2CCCN(Cc3ccccc3O)C2)c(OC)c1` (configuration not stated) | 0.2604% |
| 59 | `Cc1ccc(C(=O)N2C[C@@H]3CCCO[C@@H]3[C@H](N3CCOCC3)C2)cn1` | 4.16% |
| 60 | `CN(C)c1ncc(I)c(C2CCCCN2C)n1` (configuration not stated) | -0.3714% |
| 61 | `CCn1cc(C(=O)NCCN2CCCc3ccccc32)c(C)n1` | 6.329% |
| 62 | `Cc1ccccc1-c1noc(CNc2ccc(F)cc2OCCO)n1` | -0.1701% |
| 63 | `CN(C)CC(=O)Nc1ccc(C(=O)N(C)CCc2cn[nH]c2)cc1` | -0.1439% |
| 64 | `CC(C)c1nc(C2CCCN(C(=O)c3ccc4[nH]cnc4c3)C2)no1` (configuration not stated) | 1.182% |
| 65 | `CCC(CO)NCc1ccc(-c2ccc(Br)cc2)o1` (configuration not stated) | 1.166% |
| 66 | `Cc1nc(N(C)C)ncc1C(=O)N(Cc1ccncc1)CC1CCCO1` (configuration not stated) | 9.562% |
| 67 | `CN(Cc1ccc(Cl)s1)C(=O)NCc1nnc2n1CCC2` | -1.364% |
| 68 | `CN(CC(=O)NCCc1ccccn1)C(=O)c1cccs1` | 0.477% |
| 69 | `CCn1ccnc1CN1CCCC(CO)(Cc2cccc(Cl)c2)C1` (configuration not stated) | 2.612% |
| 70 | `c1cnc(N2CCOC3(CCN(CC4CCCCC4)CC3)C2)nc1` | 2.562% |
| 71 | `CCCC(=O)Nc1ccc2c(c1)C1(CCOCC1)CN2CCOC` | 4.777% |
| 72 | `CCCS(=O)(=O)c1ncc(CN2CCC(CO)CC2)n1CC1CCCO1` (configuration not stated) | 0.6918% |
| 73 | `CCCC(=O)N1CCC(Nc2ncc(Br)cn2)CC1` | 2.761% |
| 74 | `Cc1cccc(CN2CCCC(O)(CNCc3ncccc3C)C2=O)c1` (configuration not stated) | 0.4922% |
| 75 | `Cc1ccc(S(=O)(=O)N2C[C@@H]3CCN[C@@H]3C2)cc1` | 2.57% |
| 76 | `Cc1csc(N2CCCN(C(=O)C3(C#N)CCCCC3)CC2)n1` | 4.523% |
| 77 | `Cc1csc2c(=O)n3c(nc12)CCN(C(=O)c1ccccn1)CC3` | 0.8033% |
| 78 | `Cc1cc(C(=O)N2CCC(c3nnc(Cn4ccnc4)n3C)CC2)cs1` | 3.522% |
| 79 | `CC(C)CN1C(=O)C2(CCN(Cc3cccs3)C2)c2ccccc21` (configuration not stated) | 4.518% |

The first 8 entries again:

Cc1ncc(CNC(=O)c2nn(C)c3c2CS(=O)(=O)CC3)s1 gave 3.277%.
CNc1nc(C)c(C(=O)NCC(C)(C)N2CCCCC2)s1 gave 0.3434%.
O=C(NCCNc1cnccn1)N1CCc2ccccc2C1 gave 5.049%.
CN(Cc1ccc(O)cc1)C(=O)NC1CCCN(c2ncccn2)C1 (configuration not stated) gave -0.2842%.
OC[C@H]1CN(Cc2c(Cl)cncc2Cl)C[C@H]1CN1CCOCC1 gave 2.263%.
CSCC(C)NS(=O)(=O)c1ccc(C)c(N(C)C)c1 (configuration not stated) gave 4.214%.
Cc1ccc(-c2nnc(CN3CCCC(O)(CO)CC3)o2)n1C (configuration not stated) gave 3.255%.
Cn1nc(C(=O)N2CCOCC2)cc1C(=O)Nc1ccc(Cl)cc1Cl gave 8.128%.

Measurements from “University of Dundee, Small-Polar-MMV Screening Library” (2021), ChEMBL document CHEMBL3988442.